The record followed here is patent publication US11826357B2, “Bacterial efflux pump inhibitors” (RUTGERS, THE STATE UNIVERSITY OF NEW JERSEY, priority 2017, dated 2023).

The subject of this assay is Pseudomonas aeruginosa ATCC 27853. Description: Standard bacterial EPI assay: MIC of levofloxacin in the absence and presence of the EPI. The assay is classed as cell-based. As to conditions: ATCC27853, P. aeruginosa ATCC 27853, no EPI. The method, then: MIC assays were conducted in accordance with Clinical and Laboratory Standards Institute (CLSI) guidelines for broth microdilution. A 96-well plate containing cation-adjusted Mueller-Hinton (CAMH broth with 2-fold serial dilution of compounds was inoculated with log-phase bacterial at 5×10^5 CFU/mL. The final volume in each well was 100 μL. Each compound was tested in duplicate. The microtiter plates were incubated in an aerobic environment for 18 hours at 37° C. Then the bacterial growth was tested by reading the plate with a VersaMax plate reader (Molecular Devices, Inc.) at 600 nm. The MIC was defined as the lowest compound concentration that inhibited 90% of bacteria growth.
The EPI assay for the purposes of these studies represents a MIC assay in which the MIC of the antibiotic against the bacteria is tested in the presence of an experimental efflux pump inhibitor (EPI). […] Using serial dilutions of the EPI, its enhancement of antibiotic activity was then evaluated. […]
The impact of Example 2 on the MIC values of two test antibiotics (levofloxacin and cefepime) against P. aeruginosa ATCC 27853 were evaluated using our standard EPI assay. […]
In our standard EPI assay, the MIC of the test antibiotic is determined in the absence and presence of sub-inhibitory concentrations of the EPI. […]

The MIC is the lowest concentration that inhibits growth of the organism.

Take `C[C@H]1COc2c(N3CCN(C)CC3)c(F)cc3c(=O)c(C(=O)O)cn1c23` [levofloxacin, reference compound]: the minimum inhibitory concentration (MIC) came out at 1 µg/mL.
